To fix the notation:
B1: TRAP1 (protein, UniProt Q12931 60-704, looked up)
Heat shock protein 75 kDa, …: STQTAEDKEEPLHSIISSTESVQGSTSKHEFQAETKKLLDIVARSLYSEKEVFIRELISNASDALEKLRHKLVSDGQALPEMEIHLQTNAEKGTITIQDTGIGMTQEELVSNLGTIARSGSKAFLDALQNQAEASSKIIGQFGVGFYSAFMVADRVEVYSRSAAPGSLGYQWLSDGSGVFEIAEASGVRTGTKIIIHLKSDCKEFSSEARVRDVVTKYSNFVSFPLYLNGRRMNTLQAIWMMDPKDVREWQHEEFYRYVAQAHDKPRYTLHYKTDAPLNIRSIFYVPDMKPSMFDVSRELGSSVALYSRKVLIQTKATDILPKWLRFIRGVVDSEDIPLNLSRELLQESALIRKLRDVLQQRLIKFFIDQSKKDAEKYAKFFEDYGLFMREGIVTATEQEVKEDIAKLLRYESSALPSGQLTSLSEYASRMRAGTRNIYYLCAPNRHLAEHSPYYEAMKKKDTEVLFCFEQFDELTLLHLREFDKKKLISVETDIVVDHYKEEKFEDRSPAAECLSEKETEELMAWMRNVLGSRVTNVKVTLRLDTHPAMVTVLEMGAARHFLRMQQLAKTQEERAQLLQPTLEINPRHALIKKLNQLRASEPGLAQLLVDQIYENAMIAAGLVDDPRAMVGRLNELLVKALERH
B2: RRP1B (protein, UniProt Q14684 1-758, looked up)
Ribosomal RNA processing …: MAPAMQPAEIQFAQRLASSEKGIRDRAVKKLRQYISVKTQRETGGFSQEELLKIWKGLFYCMWVQDEPLLQEELANTIAQLVHAVNNSAAQHLFIQTFWQTMNREWKGIDRLRLDKYYMLIRLVLRQSFEVLKRNGWEESRIKVFLDVLMKEVLCPESQSPNGVRFHFIDIYLDELSKVGGKELLADQNLKFIDPFCKIAAKTKDHTLVQTIARGVFEAIVDQSPFVPEETMEEQKTKVGDGDLSAEEIPENEVSLRRAVSKKKTALGKNHSRKDGLSDERGRDDCGTFEDTGPLLQFDYKAVADRLLEMTSRKNTPHFNRKRLSKLIKKFQDLSEGSSISQLSFAEDISADEDDQILSQGKHKKKGNKLLEKTNLEKEKGSRVFCVEEEDSESSLQKRRRKKKKKHHLQPENPGPGGAAPSLEQNRGREPEASGLKALKARVAEPGAEATSSTGEESGSEHPPAVPMHNKRKRPRKKSPRAHREMLESAVLPPEDMSQSGPSGSHPQGPRGSPTGGAQLLKRKRKLGVVPVNGSGLSTPAWPPLQQEGPPTGPAEGANSHTTLPQRRRLQKKKAGPGSLELCGLPSQKTASLKKRKKMRVMSNLVEHNGVLESEAGQPQALGSSGTCSSLKKQKLRAESDFVKFDTPFLPKPLFFRRAKSSTATHPPGPAVQLNKTPSSSKKVTFGLNRNMTAEFKKTDKSILVSPTGPSRVAFDPEQKPLHGVLKTPTSSPASSPLVAKKPLTTTPRRRPRAMDFF
B3: ZNF644 (protein, UniProt Q9H582 1-1327, looked up)
Zinc finger protein 644: MRSFLQQDVNKTKSRLNVLNGLANNMDDLKINTDITGAKEELLDDNNFISDKESGVHKPKDCQTSFQKNNTLTLPEELSKDKSENALSGGQSSLFIHAGAPTVSSENFILPKGAAVNGPVSHSSLTKTSNMNKGSVSLTTGQPVDQPTTESCSTLKVAADLQLSTPQKASQHQVLFLLSDVAHAKNPTHSNKKLPTSASVGCDIQNSVGSNIKSDGTLINQVEVGEDGEDLLVKDDCVNTVTGISSGTDGFRSENDTNWDPQKEFIQFLMTNEETVDKAPPHSKIGLEKKRKRKMDVSKITRYTEDCFSDSNCVPNKSKMQEVDFLEQNEELQAVDSQKYALSKVKPESTDEDLESVDAFQHLIYNPDKCGEESSPVHTSTFLSNTLKKKCEESDSESPATFSTEEPSFYPCTKCNVNFREKKHLHRHMMYHLDGNSHFRHLNVPRPYACRECGRTFRDRNSLLKHMIIHQERRQKLMEEIRELKELQDEGRSARLQCPQCVFGTNCPKTFVQHAKTHEKDKRYYCCEECNFMAVTENELECHRGIAHGAVVKCPMVTSDIAQRKTQKKTFMKDSVVGSSKKSATYICKMCPFTTSAKSVLKKHTEYLHSSSCVDSFGSPLGLDKRKNDILEEPVDSDSTKTLTKQQSTTFPKNSALKQDVKRTFGSTSQSSSFSKIHKRPHRIQKARKSIAQSGVNMCNQNSSPHKNVTIKSSVDQKPKYFHQAAKEKSNAKANSHYLYRHKYENYRMIKKSGESYPVHFKKEEASSLNSLHLFSSSSNSHNNFISDPHKPDAKRPESFKDHRRVAVKRVIKESKKESSVGGEDLDSYPDFLHKMTVVVLQKLNSAEKKDSYETEDESSWDNVELGDYTTQAIEDETYSDINQEHVNLFPLFKSKVEGQEPGENATLSYDQNDGFYFEYYEDTGSNNFLHEIHDPQHLETADASLSKHSSVFHWTDLSLEKKSCPYCPATFETGVGLSNHVRGHLHRAGLSYEARHVVSPEQIATSDKMQHFKRTGTGTPVKRVRKAIEKSETTSEHTCQLCGGWFDTKIGLSNHVRGHLKRLGKTKWDAHKSPICVLNEMMQNEEKYEKILKALNSRRIIPRPFVAQKLASSDDFISQNVIPLEAYRNGLKTEALSVSASEEEGLNFLNEYDETKPELPSGKKNQSLTLIELLKNKRMGEERNSAISPQKIHNQTARKRFVQKCVLPLNEDSPLMYQPQKMDLTMHSALDCKQKKSRSRSGSKKKMLTLPHGADEVYILRCRFCGLVFRGPLSVQEDWIKHLQRHIVNANLPRTGAGMVEVTSLLKKPASITETSFSLLMAEAAS
B4: NUP133 (protein, UniProt Q8WUM0 1-1156, looked up)
Nuclear pore complex protein …: MFPAAPSPRTPGTGSRRGPLAGLGPGSTPRTASRKGLPLGSAVSSPVLFSPVGRRSSLSSRGTPTRMFPHHSITESVNYDVKTFGSSLPVKVMEALTLAEVDDQLTINIDEGGWACLVCKEKLIIWKIALSPITKLSVCKELQLPPSDFHWSADLVALSYSSPSGEAHSTQAVAVMVATREGSIRYWPSLAGEDTYTEAFVDSGGDKTYSFLTAVQGGSFILSSSGSQLIRLIPESSGKIHQHILPQGQGMLSGIGRKVSSLFGILSPSSDLTLSSVLWDRERSSFYSLTSSNISKWELDDSSEKHAYSWDINRALKENITDAIWGSESNYEAIKEGVNIRYLDLKQNCDGLVILAAAWHSADNPCLIYYSLITIEDNGCQMSDAVTVEVTQYNPPFQSEDLILCQLTVPNFSNQTAYLYNESAVYVCSTGTGKFSLPQEKIVFNAQGDSVLGAGACGGVPIIFSRNSGLVSITSRENVSILAEDLEGSLASSVAGPNSESMIFETTTKNETIAQEDKIKLLKAAFLQYCRKDLGHAQMVVDELFSSHSDLDSDSELDRAVTQISVDLMDDYPASDPRWAESVPEEAPGFSNTSLIILHQLEDKMKAHSFLMDFIHQVGLFGRLGSFPVRGTPMATRLLLCEHAEKLSAAIVLKNHHSRLSDLVNTAILIALNKREYEIPSNLTPADVFFREVSQVDTICECLLEHEEQVLRDAPMDSIEWAEVVINVNNILKDMLQAASHYRQNRNSLYRREESLEKEPEYVPWTATSGPGGIRTVIIRQHEIVLKVAYPQADSNLRNIVTEQLVALIDCFLDGYVSQLKSVDKSSNRERYDNLEMEYLQKRSDLLSPLLSLGQYLWAASLAEKYCDFDILVQMCEQTDNQSRLQRYMTQFADQNFSDFLFRWYLEKGKRGKLLSQPISQHGQLANFLQAHEHLSWLHEINSQELEKAHATLLGLANMETRYFAKKKTLLGLSKLAALASDFSEDMLQEKIEEMAEQERFLLHQETLPEQLLAEKQLNLSAMPVLTAPQLIGLYICEENRRANEYDFKKALDLLEYIDEEEDININDLKLEILCKALQRDNWSSSDGKDDPIEVSKDSIFVKILQKLLKDGIQLSEYLPEVKDLLQADQLGSLKSNPYFEFVLKANYEYYVQGQI
B5: HNRNPD (protein, UniProt Q14103 2-355, looked up)
Heterogeneous nuclear …: SEEQFGGDGAAAAATAAVGGSAGEQEGAMVAATQGAAAAAGSGAGTGGGTASGGTEGGSAESEGAKIDASKNEEDEGHSNSSPRHSEAATAQREEWKMFIGGLSWDTTKKDLKDYFSKFGEVVDCTLKLDPITGRSRGFGFVLFKESESVDKVMDQKEHKLNGKVIDPKRAKAMKTKEPVKKIFVGGLSPDTPEEKIREYFGGFGEVESIELPMDNKTNKRRGFCFITFKEEEPVKKIMEKKYHNVGLSKCEIKVAMSKEQYQQQQQWGSRGGFAGRARGRGGGPSQNWNQGYSNYWNQGYGNYGYNSQGYGGYGGYDYTGYNNYYGYGDYSNQQSGYGKVSRRGGHQNSYKPY
B6: PRR14 (protein, UniProt Q9BWN1 1-585, looked up)
Proline-rich protein 14: MDLPGDSSPPGQPRLCRQPLTRALWGARSPKRPRLQLPGAPSPLEKASRRVLAVVLEDVMAVHMVPVVPSKQTSIPQHHSYHQDPVHRQPPASPPRQAGWSSQARPPDPLCLCREPLSRIHRTSSTLRRRSRTTPGPEEGPSQKVDRAPQPTLVVMLEDIASPRPPAEGFIDETPNFIIPAQRAEPMRIVRQPTPPPGDLEPPFQPSALPADPLESPPTAPDPALELPSTPPPSSLLRPRLSPWGLAPLFRSVRSKLESFADIFLTPNKTPQPPPPSPPMKLELKIAISEAEQSGAAEGTASVSPRPPIRQWRTQDHNTPALLPKPSLGRSYSCPDLGPPGPGTCTWPPAPPQPSRPRPRRHTVGGGEMARAPPPPRPCLRKEVFPLGGVGASPSLTTSCSSTASTSFSEPAEPRLGSTKGKEPRASKDQVLSEPETKTMGKVSRFRIRRTPARPQLNLTPMGLPRPIRLNKKEFSLEEIYTNKNYQSPTTRRTFETIFEEPRERNGTLIFTSSRKLRRAVEFRDSSLPRSRRPSRGVRAAGGRTVPPNVAPSPDVGPLLQQRLEELDALLLEEETVDREQPHWT

This note sets out measurements from patent US20250283871A1, “COMPOSITIONS AND METHODS FOR MODULATING THE INTERACTION BETWEEN SS18-SSX FUSION ONCOPROTEIN AND NUCLEOSOMES” (Dana-Farber Cancer Institute, Inc., priority 2020, published 2025).

The test system of one data set is BAF complex subunits and histone proteins. Kind of data set: Mass spectrometry proteomics of purified HA-SS18 WT and HA-SS18-SSX1 complexes (Tables 5A-5E). On the set-up: species or system human. The note with it: HA-SS18SSX1_CHR_peptides: protein identified in the HA-SS18-SSX1 purification from solubilized chromatin (CHR), HEK-293T.
For the molecule B1, the “Total (total peptides)” value is recorded as 5 and the “Unique (unique peptides)” value is reported as 5.
Turning to B2, the “Total (total peptides)” value came to 5 and the “Unique (unique peptides)” value worked out at 5.
B3: the “Total (total peptides)” value amounted to 5 and the “Unique (unique peptides)” value came to 5.
Regarding B4, the “Total (total peptides)” value worked out at 5 and the “Unique (unique peptides)” value was found to be 5.
On to B5, for which the “Total (total peptides)” value is on record as 5 and the “Unique (unique peptides)” value was found to be 5.
B6: the “Total (total peptides)” value was determined as 5 and the “Unique (unique peptides)” value amounted to 5.

Still in this data set, the particulars now being: HA-SS18SSX1 purification, NE (soluble nuclear extract) fraction, HEK-293T; peptides per identified protein.
As for B1, the “Total (total peptides)” value was found to be 6 and the “Unique (unique peptides)” value came out at 6.
Take B2: the “Total (total peptides)” value is given as 4 and the “Unique (unique peptides)” value turned out to be 4.
With B5, the “Total (total peptides)” value came out at 3 and the “Unique (unique peptides)” value is 3.

The data set is the same for the next values; noted with them: HA-SS18WT_CHR_peptides: HA-SS18 WT purification from nuclease-treated solubilized chromatin (CHR), HEK-293T; label = protein identified.
With B1, the “Total (peptides)” value is on record as 4 and the “Unique (peptides)” value came out at 4.
Regarding B3, the “Total (peptides)” value stood at 4 and the “Unique (peptides)” value was determined as 4.
As to B5, the “Total (peptides)” value was 3 and the “Unique (peptides)” value was 2.

Still in this data set, the particulars now being: HA-SS18WT_CHR_peptides: protein identified in HA-SS18 WT BAF complex purification from nuclease-treated solubilized chromatin (CHR), HEK-293T.
For B4, the “Total (total peptides)” value is given as 2 and the “Unique (unique peptides)” value was 2.
In the case of B6, the “Total (total peptides)” value stood at 1 and the “Unique (unique peptides)” value worked out at 1.

Still in this data set, the particulars now being: HA-SS18WT_NE_peptides: HA-SS18 WT complexes purified from nuclear extract (NE), HEK-293T; label = protein identified (Gene Symbol).
For the molecule B1, the “Total (peptides)” value stood at 3 and the “Unique (peptides)” value turned out to be 3.
As for B2, the “Total (peptides)” value amounted to 3 and the “Unique (peptides)” value is 3.
In the case of B5, the “Total (peptides)” value stood at 3 and the “Unique (peptides)” value is listed as 3.
